{"sequences": {"note": "Sequences of proteins named here, by UniProt entry; tags and fusion partners are left off.", "UniProt A0A385XRK7": "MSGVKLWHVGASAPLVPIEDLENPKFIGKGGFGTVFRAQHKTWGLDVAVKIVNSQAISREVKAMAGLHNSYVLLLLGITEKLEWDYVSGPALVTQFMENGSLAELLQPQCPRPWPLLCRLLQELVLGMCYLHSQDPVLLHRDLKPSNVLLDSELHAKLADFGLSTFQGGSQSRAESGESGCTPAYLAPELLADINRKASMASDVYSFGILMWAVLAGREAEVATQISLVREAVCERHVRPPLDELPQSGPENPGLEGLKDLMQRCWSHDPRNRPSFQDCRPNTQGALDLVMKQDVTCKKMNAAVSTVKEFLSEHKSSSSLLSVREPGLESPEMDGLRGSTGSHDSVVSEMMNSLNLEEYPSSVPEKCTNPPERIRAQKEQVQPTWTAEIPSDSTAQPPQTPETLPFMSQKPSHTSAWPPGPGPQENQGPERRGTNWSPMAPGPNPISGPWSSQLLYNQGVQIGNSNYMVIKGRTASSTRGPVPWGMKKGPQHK"}, "source": "paper PMC11536665", "molecules": {"B1": {"name": "ZBP1, endogenous in porcine granulosa cells (protein, UniProt A0A288CFW7 1-438)", "chain": "MESEQATVPKAPRLPAAAADVAETPADPEDAELERRILQVLRDAGSPVRTAQLVIKCQVPKKKLNQVLHQMKKESRGGLTLVGPATWCLGDAGTDGTREVVLAEQAERPRQEAVAIPRTPGPRMPGPELSERQTEIYGLLKAQGPHKALHIAQALGLKTAKEVNRDLYAMRNHLLTLDQKSNAWGVYQPEDSRNQSTPVIYQQNPINMICQKGLNNCISIENSENIQIGHGNVIMRHESSGESGSMAAFYLPPTVPADSSAQGPLAGSWGPQDICMEKSVLRRVQMGHGNEMRLHSFPAEGPAHSACGSPPGSVSATSPEASIDIQIPEPGPHAEGVMAQKVRIRSCFLEDTTVGNSNRMSVSPGTAGPGGVSGPEEGRADPGEPGEDPDSLSGAAGRSSQVPPEGGQAAPSDAEMLTSQLEALTLRSRGPRTTEDGH"}, "B2": {"name": "Flag-ZBP1 (porcine) (protein, UniProt A0A288CFW7 1-438)", "chain": "B1 chain"}}, "key": {"[1]": {"biological_target": "T1, Flag-ZBP1 (porcine) (porcine)", "T1 sequence": "B1 chain", "experiment": "co-IP; 293T cells co-transfected for 48 h; lysates with 2 μg of specific primary antibodies overnight at 4 °C, Protein A/G magnetic beads, 3 washes; Western blot"}, "[2]": {"biological_target": "RIPK3, endogenous in porcine granulosa cells (porcine (endogenous in granulosa cells))", "experiment": "SEC; lysate of granulosa cells from porcine atretic follicles (20 mmol/L Tris, 150 mmol/L NaCl, 1% Triton X-100) on Superose 6 Increase 10/300 GL in PBS pH 7.4, 4 °C; fractions analysed by Western blotting"}, "[3]": {"biological_target": "Myc-RIPK3 (porcine) (porcine)", "experiment": "co-IP; 293T cells co-transfected for 48 h; lysates with 2 μg of specific primary antibodies overnight at 4 °C, Protein A/G magnetic beads, 3 washes; Western blot"}}, "note": "These are yes or no findings as the source states them, for the method shown. For part of these data: In cells and extracts the contact can be indirect. Some results given as binding are weak or reduced against the parent protein; the word gives no strength. For part of these data: Sequences can lack the tags named with a protein.", "data": [{"molecule": "Myc-RIPK3 (porcine) (from UniProt A0A385XRK7 1-493)", "values": [{"measurement": "binding", "setting": "[1]", "value": "binds"}]}, {"molecule": "B1", "values": [{"measurement": "binding", "setting": "[2]", "value": "binds"}]}, {"molecule": "B2", "values": [{"measurement": "binding", "setting": "[3]", "value": "binds"}]}]}
